Test results reported in patent US20110229461A1 (UCB, published 2011).
No constants are given. Whether binding was seen depends on the method and setting. Some results given as binding are weak or reduced against the parent protein; the word gives no strength.

Sequences of proteins named here, by UniProt entry; tags and fusion partners are left off. Residues count along the entry.
UniProt Q15116, residues 25-170: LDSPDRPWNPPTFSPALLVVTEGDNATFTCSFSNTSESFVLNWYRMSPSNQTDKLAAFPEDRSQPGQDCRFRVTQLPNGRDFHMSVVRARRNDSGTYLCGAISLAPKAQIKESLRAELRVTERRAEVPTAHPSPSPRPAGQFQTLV

How the values were obtained:
[1] = molecular target: human PD-1 (recombinant, titrated in BIAcore) (human) (UniProt Q15116); assay: SPR BIAcore 3000; this graft is the exception (affinity not improved)
[2] = molecular target: human PD-1 (recombinant, titrated in BIAcore) (human) (UniProt Q15116); assay: SPR BIAcore 3000

B1: 949 VK1 gL11 gH1a (antibody, V domains shown)
VH: EVQLVQSGAEVKKPGASVKVSCKAFGYTFTTYPIEWMRQAHGQGLEWIGNFHPYNDDTKYNEKFKGRVTMTVDKSTTTVYMELSSLRSEDTAVYYCARENYGSHGGFVYWGQGTLVTVS
VL: ENVLTQSPFSLSASVGDRVTITCRASSSVISSYLHWYQQKPAKAPKLWIYSTSNLASGVPDRFSGSGSGTSYTLTISSLQPEDFATYYCQQYNSYPLTFGGGTKVEIK
notes: Humanised; human kappa constant (Km3)
B1 was tested. Which binding [1] did it give?
The binding was “binds”.

B2: 949 VK3 gL11 gH1a (antibody, V domains shown)
VH: B1 VH
VL: ENVLTQSPGTLSLSPGERATLSCRASSSVISSYLHWYQQKPGQAPRLWIYSTSNLASGVPDRFSGSGSGTSYTLTISRLEPEDFATYYCQQYNSYPLTFGGGTKVEIK
notes: as for B1
For B2, which binding [2] is on record?
The binding was “binds”.
